The supplement of paper PMC10849652
This is one part of the list.

Protein sequences, listed by entry. Tags and fused reporters are not part of them. Lines headed by an entry give the natural chain unless they say otherwise; changes in a name come on top.
UniProt Q8WUA4: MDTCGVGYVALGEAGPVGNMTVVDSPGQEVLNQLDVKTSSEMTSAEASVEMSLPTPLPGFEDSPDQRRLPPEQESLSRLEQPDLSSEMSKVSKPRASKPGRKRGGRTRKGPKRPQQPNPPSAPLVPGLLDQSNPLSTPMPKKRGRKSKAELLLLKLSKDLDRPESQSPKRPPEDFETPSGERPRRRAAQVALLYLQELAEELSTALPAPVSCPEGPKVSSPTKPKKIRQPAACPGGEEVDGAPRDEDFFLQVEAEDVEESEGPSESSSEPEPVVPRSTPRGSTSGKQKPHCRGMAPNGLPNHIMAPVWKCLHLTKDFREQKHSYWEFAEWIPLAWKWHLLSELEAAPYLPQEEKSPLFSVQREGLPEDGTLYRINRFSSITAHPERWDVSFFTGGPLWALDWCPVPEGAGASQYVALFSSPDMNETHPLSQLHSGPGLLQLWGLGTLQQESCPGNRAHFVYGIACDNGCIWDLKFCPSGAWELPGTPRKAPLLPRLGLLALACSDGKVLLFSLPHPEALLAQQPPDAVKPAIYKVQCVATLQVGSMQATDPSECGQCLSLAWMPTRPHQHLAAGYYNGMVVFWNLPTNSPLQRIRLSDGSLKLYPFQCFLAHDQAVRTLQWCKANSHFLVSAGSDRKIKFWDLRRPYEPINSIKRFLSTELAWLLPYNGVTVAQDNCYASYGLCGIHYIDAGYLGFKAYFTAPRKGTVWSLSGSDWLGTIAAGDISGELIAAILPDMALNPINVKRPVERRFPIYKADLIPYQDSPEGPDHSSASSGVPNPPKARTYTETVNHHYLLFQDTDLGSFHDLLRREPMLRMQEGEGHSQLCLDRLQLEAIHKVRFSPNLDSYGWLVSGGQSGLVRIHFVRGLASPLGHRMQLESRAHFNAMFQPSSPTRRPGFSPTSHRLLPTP
UniProt O00178: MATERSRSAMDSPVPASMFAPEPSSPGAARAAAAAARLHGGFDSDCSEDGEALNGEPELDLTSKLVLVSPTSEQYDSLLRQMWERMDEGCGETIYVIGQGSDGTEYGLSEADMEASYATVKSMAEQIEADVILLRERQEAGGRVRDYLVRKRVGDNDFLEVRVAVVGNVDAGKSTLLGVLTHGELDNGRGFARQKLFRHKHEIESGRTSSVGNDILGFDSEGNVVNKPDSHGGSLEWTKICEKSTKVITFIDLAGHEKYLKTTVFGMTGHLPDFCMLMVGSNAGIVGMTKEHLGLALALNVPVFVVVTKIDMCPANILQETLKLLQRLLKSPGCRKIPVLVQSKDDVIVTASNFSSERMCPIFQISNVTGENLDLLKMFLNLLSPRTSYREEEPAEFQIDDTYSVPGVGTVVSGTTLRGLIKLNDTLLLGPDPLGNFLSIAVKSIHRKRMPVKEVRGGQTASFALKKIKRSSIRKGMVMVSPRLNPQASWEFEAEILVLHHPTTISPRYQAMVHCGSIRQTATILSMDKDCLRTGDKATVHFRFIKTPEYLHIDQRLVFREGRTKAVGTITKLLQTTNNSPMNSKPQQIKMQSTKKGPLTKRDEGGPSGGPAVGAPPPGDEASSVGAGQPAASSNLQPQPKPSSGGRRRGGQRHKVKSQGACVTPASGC
UniProt P02100: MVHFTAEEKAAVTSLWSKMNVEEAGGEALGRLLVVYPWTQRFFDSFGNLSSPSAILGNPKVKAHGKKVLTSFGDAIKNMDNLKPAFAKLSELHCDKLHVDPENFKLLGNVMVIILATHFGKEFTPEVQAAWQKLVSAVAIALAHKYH
UniProt Q4V328: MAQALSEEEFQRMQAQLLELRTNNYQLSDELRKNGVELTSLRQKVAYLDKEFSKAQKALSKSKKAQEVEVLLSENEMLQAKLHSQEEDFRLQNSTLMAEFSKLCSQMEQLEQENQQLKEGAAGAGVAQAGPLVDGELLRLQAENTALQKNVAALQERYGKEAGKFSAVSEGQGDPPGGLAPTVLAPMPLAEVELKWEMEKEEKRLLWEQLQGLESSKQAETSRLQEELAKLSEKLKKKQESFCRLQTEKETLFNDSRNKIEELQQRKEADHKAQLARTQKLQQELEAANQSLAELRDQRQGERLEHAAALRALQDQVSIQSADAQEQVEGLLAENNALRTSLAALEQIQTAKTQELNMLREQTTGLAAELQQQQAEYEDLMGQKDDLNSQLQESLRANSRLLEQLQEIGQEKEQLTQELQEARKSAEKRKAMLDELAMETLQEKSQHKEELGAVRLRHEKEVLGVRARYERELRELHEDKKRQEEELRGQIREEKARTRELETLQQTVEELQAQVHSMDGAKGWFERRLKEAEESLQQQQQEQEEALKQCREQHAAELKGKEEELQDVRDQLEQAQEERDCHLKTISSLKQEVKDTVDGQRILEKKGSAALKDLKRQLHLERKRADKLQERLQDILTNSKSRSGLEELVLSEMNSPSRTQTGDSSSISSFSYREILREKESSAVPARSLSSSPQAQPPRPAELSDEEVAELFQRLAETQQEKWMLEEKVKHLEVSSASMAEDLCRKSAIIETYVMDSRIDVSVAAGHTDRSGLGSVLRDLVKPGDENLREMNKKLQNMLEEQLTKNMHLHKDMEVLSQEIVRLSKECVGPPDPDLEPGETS
UniProt P51610: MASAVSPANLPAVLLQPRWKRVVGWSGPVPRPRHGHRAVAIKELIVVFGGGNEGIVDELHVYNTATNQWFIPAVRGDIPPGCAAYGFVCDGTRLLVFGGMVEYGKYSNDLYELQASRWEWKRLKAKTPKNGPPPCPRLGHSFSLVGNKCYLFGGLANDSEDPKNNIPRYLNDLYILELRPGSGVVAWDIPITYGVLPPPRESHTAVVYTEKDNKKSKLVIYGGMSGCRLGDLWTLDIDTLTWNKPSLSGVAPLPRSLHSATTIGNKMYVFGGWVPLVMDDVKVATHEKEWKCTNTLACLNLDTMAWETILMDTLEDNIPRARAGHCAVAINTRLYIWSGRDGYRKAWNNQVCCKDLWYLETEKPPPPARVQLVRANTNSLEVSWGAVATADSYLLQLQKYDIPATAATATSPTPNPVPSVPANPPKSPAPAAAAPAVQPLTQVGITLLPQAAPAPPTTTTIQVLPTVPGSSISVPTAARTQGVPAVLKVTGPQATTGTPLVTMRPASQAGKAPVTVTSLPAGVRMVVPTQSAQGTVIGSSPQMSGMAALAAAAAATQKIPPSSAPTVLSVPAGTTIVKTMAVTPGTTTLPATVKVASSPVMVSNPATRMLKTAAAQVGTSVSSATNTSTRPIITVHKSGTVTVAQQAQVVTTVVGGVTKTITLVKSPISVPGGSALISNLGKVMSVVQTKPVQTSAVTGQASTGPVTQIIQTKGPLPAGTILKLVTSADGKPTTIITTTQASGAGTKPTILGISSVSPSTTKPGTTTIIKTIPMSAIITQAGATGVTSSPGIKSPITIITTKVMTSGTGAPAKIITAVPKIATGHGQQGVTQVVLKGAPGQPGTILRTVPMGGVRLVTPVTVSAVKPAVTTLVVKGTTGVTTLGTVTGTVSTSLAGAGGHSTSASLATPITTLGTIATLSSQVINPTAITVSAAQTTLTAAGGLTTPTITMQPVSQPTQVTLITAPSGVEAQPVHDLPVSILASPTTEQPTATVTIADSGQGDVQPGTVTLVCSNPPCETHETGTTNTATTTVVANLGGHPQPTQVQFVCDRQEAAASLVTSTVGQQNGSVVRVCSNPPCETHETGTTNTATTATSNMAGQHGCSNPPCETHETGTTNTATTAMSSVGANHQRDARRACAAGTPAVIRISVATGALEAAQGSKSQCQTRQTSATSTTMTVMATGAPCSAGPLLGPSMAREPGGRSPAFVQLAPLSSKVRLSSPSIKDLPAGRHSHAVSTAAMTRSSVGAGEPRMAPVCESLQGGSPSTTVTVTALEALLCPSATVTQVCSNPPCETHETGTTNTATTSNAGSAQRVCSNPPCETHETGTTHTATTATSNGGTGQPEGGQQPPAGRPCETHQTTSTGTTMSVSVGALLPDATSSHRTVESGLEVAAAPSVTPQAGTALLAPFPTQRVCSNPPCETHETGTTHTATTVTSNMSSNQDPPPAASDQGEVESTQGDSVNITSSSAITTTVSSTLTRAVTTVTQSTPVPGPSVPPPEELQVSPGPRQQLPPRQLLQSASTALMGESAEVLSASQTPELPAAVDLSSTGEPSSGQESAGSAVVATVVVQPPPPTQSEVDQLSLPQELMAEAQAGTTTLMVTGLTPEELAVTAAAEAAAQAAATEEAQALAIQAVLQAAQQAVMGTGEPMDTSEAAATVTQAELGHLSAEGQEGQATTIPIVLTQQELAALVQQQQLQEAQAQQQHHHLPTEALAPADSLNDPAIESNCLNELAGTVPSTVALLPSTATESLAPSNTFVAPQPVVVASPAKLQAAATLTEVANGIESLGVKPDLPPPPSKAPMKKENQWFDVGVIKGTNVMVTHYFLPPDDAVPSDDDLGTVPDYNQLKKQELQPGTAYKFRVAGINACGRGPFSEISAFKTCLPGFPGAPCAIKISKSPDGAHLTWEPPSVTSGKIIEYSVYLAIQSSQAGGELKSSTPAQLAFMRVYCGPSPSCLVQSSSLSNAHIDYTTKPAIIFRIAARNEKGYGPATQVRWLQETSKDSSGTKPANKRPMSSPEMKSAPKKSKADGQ
UniProt Q6IC98: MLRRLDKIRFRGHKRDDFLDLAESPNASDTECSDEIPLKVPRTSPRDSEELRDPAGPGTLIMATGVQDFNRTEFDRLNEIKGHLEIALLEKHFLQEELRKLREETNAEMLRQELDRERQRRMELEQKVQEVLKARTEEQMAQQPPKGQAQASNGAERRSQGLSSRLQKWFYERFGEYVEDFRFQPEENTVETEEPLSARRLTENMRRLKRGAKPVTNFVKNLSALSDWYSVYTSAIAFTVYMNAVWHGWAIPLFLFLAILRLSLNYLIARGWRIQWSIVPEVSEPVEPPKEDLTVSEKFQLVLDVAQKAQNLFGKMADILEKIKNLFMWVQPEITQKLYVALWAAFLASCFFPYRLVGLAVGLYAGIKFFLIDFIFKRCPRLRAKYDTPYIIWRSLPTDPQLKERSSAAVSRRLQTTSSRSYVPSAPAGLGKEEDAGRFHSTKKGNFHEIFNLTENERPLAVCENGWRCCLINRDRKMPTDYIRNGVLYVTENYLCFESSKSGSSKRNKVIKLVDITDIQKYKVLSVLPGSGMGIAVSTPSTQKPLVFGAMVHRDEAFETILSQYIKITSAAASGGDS
UniProt P42357: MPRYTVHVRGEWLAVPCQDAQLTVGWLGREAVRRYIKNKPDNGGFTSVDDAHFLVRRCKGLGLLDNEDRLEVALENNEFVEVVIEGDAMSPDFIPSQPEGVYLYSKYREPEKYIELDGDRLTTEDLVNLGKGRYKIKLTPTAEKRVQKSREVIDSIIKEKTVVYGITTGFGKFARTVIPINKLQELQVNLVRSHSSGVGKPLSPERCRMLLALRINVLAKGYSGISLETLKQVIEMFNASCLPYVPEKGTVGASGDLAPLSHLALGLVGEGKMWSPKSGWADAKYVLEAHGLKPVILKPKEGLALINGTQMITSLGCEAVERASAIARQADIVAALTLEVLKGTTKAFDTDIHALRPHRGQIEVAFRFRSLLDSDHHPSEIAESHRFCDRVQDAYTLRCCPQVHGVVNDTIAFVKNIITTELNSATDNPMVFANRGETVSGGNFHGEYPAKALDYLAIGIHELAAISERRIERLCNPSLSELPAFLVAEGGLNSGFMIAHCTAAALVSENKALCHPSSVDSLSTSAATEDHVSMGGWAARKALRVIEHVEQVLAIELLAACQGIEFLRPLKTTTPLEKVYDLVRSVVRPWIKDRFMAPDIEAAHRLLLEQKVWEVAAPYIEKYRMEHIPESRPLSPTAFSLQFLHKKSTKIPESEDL
UniProt Q6Y1H2: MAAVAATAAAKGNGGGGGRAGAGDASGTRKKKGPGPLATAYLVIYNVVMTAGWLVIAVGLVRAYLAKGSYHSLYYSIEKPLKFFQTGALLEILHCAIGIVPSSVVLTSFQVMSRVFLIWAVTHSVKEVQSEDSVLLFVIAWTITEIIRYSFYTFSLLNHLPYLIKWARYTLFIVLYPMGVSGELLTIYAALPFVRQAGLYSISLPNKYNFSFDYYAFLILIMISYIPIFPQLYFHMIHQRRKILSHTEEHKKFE
UniProt O60443: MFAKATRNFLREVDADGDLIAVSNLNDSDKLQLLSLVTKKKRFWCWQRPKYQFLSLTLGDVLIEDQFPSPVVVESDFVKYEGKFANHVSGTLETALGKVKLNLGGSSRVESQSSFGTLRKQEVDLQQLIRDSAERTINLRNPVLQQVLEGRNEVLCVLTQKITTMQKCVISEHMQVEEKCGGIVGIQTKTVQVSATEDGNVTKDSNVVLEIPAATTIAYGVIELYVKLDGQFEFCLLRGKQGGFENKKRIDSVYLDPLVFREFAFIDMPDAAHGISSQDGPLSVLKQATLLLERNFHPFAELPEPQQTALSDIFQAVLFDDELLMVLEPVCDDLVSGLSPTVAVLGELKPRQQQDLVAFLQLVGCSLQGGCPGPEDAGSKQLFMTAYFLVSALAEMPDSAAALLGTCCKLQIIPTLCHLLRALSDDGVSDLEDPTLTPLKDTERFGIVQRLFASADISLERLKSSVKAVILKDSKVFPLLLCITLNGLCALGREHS

Tests used:
Experiment in all cases: log2 fold change, soluble protein after heating vs DMSO (PISA); higher = thermal stabilisation; K562 lysate, 10 uM; active = over 0.2 and 3.5 SD of the protein, either way, in both replicates (recomputed)
vemurafenib = compound: CCCS(=O)(=O)Nc1ccc(F)c(C(=O)c2c[nH]c3ncc(-c4ccc(Cl)cc4)cc23)c1F [vemurafenib]
Outline: (§1)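 Values give the log-two fold change in thermal stability against solvent controls, from duplicates. Crude K562 extract at 1 mg/mL protein, made by dounce homogenisation in PBS pH 7.4 with 1 mM MgCl2, was treated with 10 μM compound for 30 min. After 3 min heating across 48°C-58°C, aliquots were pooled, adjusted to 0.5% NP-40 at 4°C and centrifuged at 21,000xg for 90 min. The supernatant was measured by TMTpro 16plex LC-MS/MS with channel sums equalised.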

[1] = compound: CCCS(=O)(=O)Nc1ccc(F)c(C(=O)c2c[nH]c3ncc(Cl)cc23)c1F
Outline: as §1

barasertib = compound: CCN(CCCOc1ccc2c(Nc3cc(CC(=O)Nc4cccc(F)c4)[nH]n3)ncnc2c1)CCOP(=O)(O)O [barasertib]
Outline: as §1

[2] = compound: CC[C@@H]1C(=O)N(C)c2cnc(Nc3ccc(C(=O)NC4CCN(C)CC4)cc3OC)nc2N1C1CCCC1
Outline: as §1

volasertib = compound: CC[C@@H]1C(=O)N(C)c2cnc(Nc3ccc(C(=O)N[C@H]4CC[C@H](N5CCN(CC6CC6)CC5)CC4)cc3OC)nc2N1C(C)C [volasertib]
Outline: as §1

[3] = compound: CCn1c(C(=O)N(C2CC2)C2CC2)cc2c3c(ncn3C)c(Nc3cc(C)n(C)n3)nc21
Outline: as §1

[4] = compound: CCn1cc(-c2ccnc3[nH]c(-c4cccc(CN(C)C)c4)cc23)c(-c2ccc(NC(=O)N(C)C)cc2)n1
Outline: as §1

[5] = compound: CN1CCC(CNc2ccc3ncc(-c4cccc(OC(F)(F)F)c4)n3n2)CC1
Outline: as §1

saracatinib = compound: CN1CCN(CCOc2cc(OC3CCOCC3)c3c(Nc4c(Cl)ccc5c4OCO5)ncnc3c2)CC1 [saracatinib]
Outline: as §1

sotrastaurin = compound: CN1CCN(c2nc(C3=C(c4c[nH]c5ccccc45)C(=O)NC3=O)c3ccccc3n2)CC1 [sotrastaurin]
Outline: as §1

Measured: log2 fold change

HEATR1 (UniProt Q9H583)
inactive: vemurafenib 0.071 | [1] 0.023 | barasertib 0.052 | [2] -0.063 | volasertib -0.023 | [3] -0.01 | [4] 0.068 | [5] -0.184 | saracatinib -0.007 | sotrastaurin 0.026

GTF3C2 (UniProt Q8WUA4)
inactive: vemurafenib -0.005 | [1] 0.056 | barasertib 0.134 | [2] 0.017 | volasertib -0.223 | [3] -0.005 | [4] -0.115 | [5] 0.066 | saracatinib -0.051 | sotrastaurin 0.011

H2AFY (UniProt O75367)
inactive: vemurafenib -0.042 | [1] 0.013 | barasertib 0.094 | [2] 0.131 | volasertib -0.036 | [3] -0.001 | [4] -0.059 | [5] 0.056 | saracatinib -0.077 | sotrastaurin 0.104

GYG2 (UniProt O15488)
inactive: vemurafenib -0.081 | [1] 0.013 | barasertib 0.056 | [2] 0.01 | volasertib -0.05 | [3] -0.011 | saracatinib 0.118

HDDC2 (UniProt Q7Z4H3)
inactive: vemurafenib -0.058 | [1] 0.017 | barasertib 0.01 | [2] 0.033 | volasertib 0.01 | [3] 0.008 | [4] -0.009 | [5] 0.01 | saracatinib -0.023 | sotrastaurin -0.019

GTPBP1 (UniProt O00178)
inactive: vemurafenib 0.038 | [1] 0.034 | barasertib -0.027 | [2] 0.012 | volasertib -0.008 | [3] 0.022 | [4] -0.138 | [5] 0.033 | saracatinib 0.023 | sotrastaurin 0.001

GUK1 isoform 2 (UniProt Q16774)
inactive: vemurafenib 0.012 | [1] 0.017 | barasertib -0.02 | [2] 0.017 | volasertib -0.04 | [3] -0.009 | [4] -0.197 | [5] 0.112 | saracatinib -0.011 | sotrastaurin 0.086

GTPBP10 (UniProt A4D1E9)
inactive: vemurafenib 0.02 | [1] 0.013 | barasertib -0.033 | [2] 0.009 | volasertib -0.082 | [3] -0.015 | [4] 0.042 | [5] -0.06 | saracatinib 0.012 | sotrastaurin 0.079

Looked up one by one from the list above (two):
GUK1 isoform 2 (UniProt Q16774)
inactive: vemurafenib 0.012 | [1] 0.017 | barasertib -0.02 | [2] 0.017 | volasertib -0.04 | [3] -0.009 | [4] -0.197 | [5] 0.112 | saracatinib -0.011 | sotrastaurin 0.086

GTPBP10 (UniProt A4D1E9)
inactive: vemurafenib 0.02 | [1] 0.013 | barasertib -0.033 | [2] 0.009 | volasertib -0.082 | [3] -0.015 | [4] 0.042 | [5] -0.06 | saracatinib 0.012 | sotrastaurin 0.079

Additional entries

HBE1 (UniProt P02100)
inactive: vemurafenib 0.011 | [1] -0.026 | barasertib 0.032 | [2] 0.007 | volasertib 0.081 | [3] 0.003 | [4] -0.031 | [5] -0.016 | saracatinib 0.009 | sotrastaurin -0.019

HCFC2 (UniProt Q9Y5Z7)
inactive: barasertib 0.06 | sotrastaurin 0.161

HABP4 (UniProt Q5JVS0)
inactive: barasertib 0.055

GSR isoform 5 (UniProt P00390)
inactive: vemurafenib 0.035 | [1] 0.038 | barasertib -0.043 | volasertib 0.103 | [3] -0.068 | [4] -0.755 | [5] 0.178 | saracatinib 0.033 | sotrastaurin -0.05

GTF2H2C (UniProt Q6P1K8)
inactive: [2] 0.228 | [3] -0.153 | saracatinib -0.057 | sotrastaurin 0.062

GRIPAP1 isoform 2 (UniProt Q4V328)
inactive: sotrastaurin -0.072

H6PD (UniProt O95479)
inactive: [1] 0.077 | barasertib 0.047 | [2] -0.068 | volasertib 0 | [3] 0.069 | [4] 0.004 | [5] -0.001 | saracatinib -0.145 | sotrastaurin -0.173

HAGHL isoform 2 (UniProt Q6PII5)
inactive: vemurafenib 0.044 | [1] 0.019 | barasertib 0.013 | [2] 0.079 | volasertib -0.029 | [3] 0.049 | saracatinib -0.003 | sotrastaurin -0.011

HCFC1 (UniProt P51610)
inactive: vemurafenib -0.047 | [1] 0.086 | barasertib -0.024 | volasertib -0.014 | [3] -0.138 | [4] -0.131 | [5] 0.14 | sotrastaurin 0.067

GRAMD4 (UniProt Q6IC98)
inactive: vemurafenib 0.176 | [1] 0.15 | [2] 0.145 | volasertib -0.073 | [3] -0.178 | saracatinib -0.038 | sotrastaurin -0.027

GPSM3 (UniProt Q9Y4H4)
inactive: [1] -0.028 | volasertib 0.004 | [3] -0.085 | [4] -0.189 | [5] -0.064 | saracatinib 0.045 | sotrastaurin 0.025

HAGH isoform 2 (UniProt Q16775)
inactive: [1] 0.008 | volasertib 0.196 | [3] -0.055 | saracatinib -0.077 | sotrastaurin 0.045

GYPA, A0A2R8Y7F9
inactive: barasertib 0.066 | [4] -0.812 | [5] 0.25

HAL (UniProt P42357)
inactive: [1] -0.12 | [2] 0.031 | volasertib 0.051 | [3] 0.613 | [4] 0.029 | [5] 0.043 | saracatinib -0.244 | sotrastaurin 0.011

HACD2 (UniProt Q6Y1H2)
inactive: [1] 0.035 | barasertib 0.116 | volasertib -0.367 | [3] 0.059

H1-0 (UniProt P07305)
inactive: saracatinib -0.108 | sotrastaurin -0.006

HDAC3 (UniProt E7ESJ6)
inactive: [1] 0.031 | volasertib -0.16

GSPT1 isoform 2 (UniProt P15170)
inactive: vemurafenib 0.034 | [1] 0.029 | volasertib 0.199

GRM5 (UniProt P41594)
inactive: [1] -0.048 | barasertib 0.21 | [2] 0.146 | volasertib 0.105 | [3] -0.206 | saracatinib -0.053

GPT2 (UniProt Q8TD30)
inactive: vemurafenib 0.02 | [2] 0.058 | [3] -0.199 | saracatinib -0.058 | sotrastaurin -0.004

GREB1 (UniProt Q4ZG55)
inactive: vemurafenib 0.272 | barasertib 0.053 | [2] 0.58 | [4] -0.47 | [5] 0.056 | sotrastaurin -0.06

GRN (UniProt P28799)
inactive: [1] 0.064 | [2] 0.175 | volasertib 0.091 | [3] 0.065 | [4] 0.078 | [5] 0.123 | saracatinib -0.056 | sotrastaurin 0.089

GSDME (UniProt O60443)
inactive: [1] 0.041 | barasertib -0.121 | [2] 0.042 | volasertib -0.058 | [4] 0.015 | [5] 0.08 | saracatinib -0.047 | sotrastaurin 0.128

GSTO1 (UniProt Q5TA02)
inactive: [1] 0.014 | volasertib -0.055

H3C1 (UniProt P68431)
inactive: barasertib -0.092

HBZ, A0A494C057
inactive: vemurafenib 0.01 | [1] -0.016 | barasertib 0.388 | volasertib -0.011 | [3] -0.158 | [4] 1.62 | [5] -0.16

GUCD1 isoform 3 (UniProt Q96NT3)
inactive: [1] -0.005 | volasertib -0.005 | [3] 0.143 | saracatinib 0.034 | sotrastaurin -0.113

HBD (UniProt E9PEW8)
inactive: vemurafenib 0.066 | [1] -0.021 | volasertib 0.076 | [4] 1.2 | [5] -0.002 | sotrastaurin 0.064

GULP1 (UniProt Q9UBP9)
inactive: vemurafenib 0.003 | barasertib -0.022 | [2] -0.047 | [3] 0.077 | [4] -0.01 | [5] -0.02 | saracatinib 0.03 | sotrastaurin 0.032

GSDMD (UniProt P57764)
inactive: vemurafenib 0.003 | [3] -0.114 | sotrastaurin -0.02

H3-3A (UniProt P84243)
inactive: vemurafenib 0.027 | [1] 0.015 | barasertib 0.067 | [2] -0.017 | volasertib -0.006 | [4] 0.027 | [5] -0.025 | sotrastaurin -0.028

GTPBP6 (UniProt O43824)
inactive: vemurafenib -0.089 | [2] 0.32 | [4] -0.062 | [5] -0.096 | saracatinib -0.166

GRAMD1A (UniProt Q96CP6)
inactive: sotrastaurin 0.109

H3-2 (UniProt Q5TEC6)
inactive: barasertib -0.026 | [2] -0.057 | [3] -0.086 | saracatinib -0.104 | sotrastaurin 0.054
